We go through one substance from PMC9508841.

The chains behind the UniProt entries cited, without tags or fusion partners.
UniProt P51818: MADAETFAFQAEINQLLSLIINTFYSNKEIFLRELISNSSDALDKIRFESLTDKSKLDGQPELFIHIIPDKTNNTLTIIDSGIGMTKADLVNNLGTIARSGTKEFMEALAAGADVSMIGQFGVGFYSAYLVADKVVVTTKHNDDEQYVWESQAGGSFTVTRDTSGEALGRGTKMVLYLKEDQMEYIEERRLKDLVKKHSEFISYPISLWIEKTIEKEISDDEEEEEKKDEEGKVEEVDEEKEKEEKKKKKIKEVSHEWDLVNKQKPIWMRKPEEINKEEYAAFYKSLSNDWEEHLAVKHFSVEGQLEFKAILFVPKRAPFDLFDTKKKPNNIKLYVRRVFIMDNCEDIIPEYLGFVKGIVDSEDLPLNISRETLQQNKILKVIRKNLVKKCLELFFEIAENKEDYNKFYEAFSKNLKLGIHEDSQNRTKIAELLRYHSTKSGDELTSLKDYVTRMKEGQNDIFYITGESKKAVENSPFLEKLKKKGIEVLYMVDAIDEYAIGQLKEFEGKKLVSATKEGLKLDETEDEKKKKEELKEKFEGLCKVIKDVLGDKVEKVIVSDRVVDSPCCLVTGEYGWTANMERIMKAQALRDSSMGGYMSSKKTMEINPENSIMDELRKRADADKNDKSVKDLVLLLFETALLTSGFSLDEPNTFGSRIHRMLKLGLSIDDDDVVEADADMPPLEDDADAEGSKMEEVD

Assay [1] deals with T1, Arabidopsis thaliana ARGONAUTE10 (Arabidopsis thaliana) (UniProt Q9XGW1).
T1 sequence: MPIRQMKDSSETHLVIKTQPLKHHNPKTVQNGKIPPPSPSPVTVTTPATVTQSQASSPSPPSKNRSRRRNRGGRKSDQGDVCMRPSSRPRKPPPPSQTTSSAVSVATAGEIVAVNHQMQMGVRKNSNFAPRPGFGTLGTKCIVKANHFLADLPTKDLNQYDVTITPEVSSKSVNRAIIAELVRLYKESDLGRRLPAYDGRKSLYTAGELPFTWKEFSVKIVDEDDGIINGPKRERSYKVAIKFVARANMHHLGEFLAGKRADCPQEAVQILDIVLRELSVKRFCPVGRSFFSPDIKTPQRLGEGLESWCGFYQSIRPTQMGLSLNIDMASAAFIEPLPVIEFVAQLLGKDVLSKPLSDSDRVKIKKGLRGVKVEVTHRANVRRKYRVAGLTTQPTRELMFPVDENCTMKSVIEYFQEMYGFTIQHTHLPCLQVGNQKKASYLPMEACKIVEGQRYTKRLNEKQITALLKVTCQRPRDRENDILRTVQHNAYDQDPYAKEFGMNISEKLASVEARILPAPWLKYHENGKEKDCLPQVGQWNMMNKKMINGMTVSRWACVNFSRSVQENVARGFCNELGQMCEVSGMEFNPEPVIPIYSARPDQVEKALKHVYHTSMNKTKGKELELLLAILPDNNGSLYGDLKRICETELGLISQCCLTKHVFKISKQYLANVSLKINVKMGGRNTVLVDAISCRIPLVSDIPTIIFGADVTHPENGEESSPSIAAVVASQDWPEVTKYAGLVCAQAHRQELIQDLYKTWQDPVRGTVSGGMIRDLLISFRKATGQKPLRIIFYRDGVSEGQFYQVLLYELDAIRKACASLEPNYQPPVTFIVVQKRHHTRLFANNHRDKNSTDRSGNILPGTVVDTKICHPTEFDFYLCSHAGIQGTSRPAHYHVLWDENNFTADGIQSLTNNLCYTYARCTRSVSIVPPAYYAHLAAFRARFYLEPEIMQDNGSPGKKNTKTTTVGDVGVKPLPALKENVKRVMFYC
Briefly: pull-down; without ATP; details in Supplementary Figure S8D,E (not shown); both purified.

Assay [2] has as its target T1, Arabidopsis thaliana ARGONAUTE10 (Arabidopsis thaliana). Put plainly: pull-down; immobilized AtAGO10 pulls down HSP70 and HSP90, also both simultaneously; details in Supplementary Figure S8B-E (not shown); both purified.

Results are given in words; binding and its absence hold for the method and conditions named. Some binding calls cover weakened binding; strength is not graded here.

As for “AtHsp90.3 (AT5G56010.1) (from UniProt P51818 1-699)”, the binding entry in assay [1] and in assay [2] was “binds” throughout.
